# Literature values in patent US6809102B2, “Cyano-substituted dihydropyrimidine compounds and their use to treat diseases” (Bristol-Myers Squibb Company, priority 2001, dated 2004).
# At least one compound was matched to its structure with a doubt left.
# Tests used:
# [1] = system: related kinesin motor
# [2] = system: mitotic spindle
# [3] = system: motor(s) responsible for golgi apparatus movement; conditions: within the cell
compound,measurement,setting,value
CCOC(=O)C1=C(C)NC(=S)NC1c1cccc(O)c1 (stereo not shown) [monastrol],effect upon the related kinesin motor,[1],no apparent effect
same,mitotic spindle phenotype,[2],induced the formation of an aberrant mitotic spindle
same,reversibility of the cell cycle arrest in mitosis,[2],reversible
same,effect upon the motor(s) responsible for golgi apparatus movement,[3],no apparent effect
